Source: the supplement of paper PMC10849652
Some of the results follow.

The chains behind the UniProt entries cited, without tags or fusion partners. Where a name states a change or a piece, a line headed by the entry shows the natural chain unless it says otherwise.
UniProt Q8N6N7: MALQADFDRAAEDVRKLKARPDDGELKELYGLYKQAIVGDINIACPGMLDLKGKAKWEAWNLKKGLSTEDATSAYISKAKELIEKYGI
UniProt Q96M93: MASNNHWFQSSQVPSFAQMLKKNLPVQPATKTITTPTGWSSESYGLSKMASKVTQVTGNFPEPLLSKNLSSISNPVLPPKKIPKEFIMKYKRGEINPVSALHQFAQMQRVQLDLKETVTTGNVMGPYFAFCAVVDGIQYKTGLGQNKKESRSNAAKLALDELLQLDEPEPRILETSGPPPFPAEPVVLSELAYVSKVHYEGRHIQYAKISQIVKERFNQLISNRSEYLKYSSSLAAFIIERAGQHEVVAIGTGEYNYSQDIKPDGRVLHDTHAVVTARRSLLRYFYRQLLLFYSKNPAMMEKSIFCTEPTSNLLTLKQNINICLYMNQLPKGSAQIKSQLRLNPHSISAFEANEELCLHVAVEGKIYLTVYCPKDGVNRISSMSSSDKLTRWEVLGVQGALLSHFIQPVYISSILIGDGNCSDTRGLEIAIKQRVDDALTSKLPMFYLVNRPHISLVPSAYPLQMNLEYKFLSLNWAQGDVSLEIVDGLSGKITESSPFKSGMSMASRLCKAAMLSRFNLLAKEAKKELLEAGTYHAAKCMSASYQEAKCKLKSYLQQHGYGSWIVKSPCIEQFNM
UniProt Q8WTS1: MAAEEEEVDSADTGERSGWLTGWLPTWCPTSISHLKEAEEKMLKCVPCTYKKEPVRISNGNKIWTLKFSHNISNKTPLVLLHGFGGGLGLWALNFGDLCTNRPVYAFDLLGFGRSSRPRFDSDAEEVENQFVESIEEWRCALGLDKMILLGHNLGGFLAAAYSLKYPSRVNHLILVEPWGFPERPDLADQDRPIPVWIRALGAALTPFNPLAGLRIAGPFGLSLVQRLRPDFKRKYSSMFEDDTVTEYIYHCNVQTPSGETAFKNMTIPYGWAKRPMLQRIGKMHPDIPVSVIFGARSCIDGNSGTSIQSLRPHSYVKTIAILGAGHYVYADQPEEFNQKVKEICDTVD
UniProt Q4L235: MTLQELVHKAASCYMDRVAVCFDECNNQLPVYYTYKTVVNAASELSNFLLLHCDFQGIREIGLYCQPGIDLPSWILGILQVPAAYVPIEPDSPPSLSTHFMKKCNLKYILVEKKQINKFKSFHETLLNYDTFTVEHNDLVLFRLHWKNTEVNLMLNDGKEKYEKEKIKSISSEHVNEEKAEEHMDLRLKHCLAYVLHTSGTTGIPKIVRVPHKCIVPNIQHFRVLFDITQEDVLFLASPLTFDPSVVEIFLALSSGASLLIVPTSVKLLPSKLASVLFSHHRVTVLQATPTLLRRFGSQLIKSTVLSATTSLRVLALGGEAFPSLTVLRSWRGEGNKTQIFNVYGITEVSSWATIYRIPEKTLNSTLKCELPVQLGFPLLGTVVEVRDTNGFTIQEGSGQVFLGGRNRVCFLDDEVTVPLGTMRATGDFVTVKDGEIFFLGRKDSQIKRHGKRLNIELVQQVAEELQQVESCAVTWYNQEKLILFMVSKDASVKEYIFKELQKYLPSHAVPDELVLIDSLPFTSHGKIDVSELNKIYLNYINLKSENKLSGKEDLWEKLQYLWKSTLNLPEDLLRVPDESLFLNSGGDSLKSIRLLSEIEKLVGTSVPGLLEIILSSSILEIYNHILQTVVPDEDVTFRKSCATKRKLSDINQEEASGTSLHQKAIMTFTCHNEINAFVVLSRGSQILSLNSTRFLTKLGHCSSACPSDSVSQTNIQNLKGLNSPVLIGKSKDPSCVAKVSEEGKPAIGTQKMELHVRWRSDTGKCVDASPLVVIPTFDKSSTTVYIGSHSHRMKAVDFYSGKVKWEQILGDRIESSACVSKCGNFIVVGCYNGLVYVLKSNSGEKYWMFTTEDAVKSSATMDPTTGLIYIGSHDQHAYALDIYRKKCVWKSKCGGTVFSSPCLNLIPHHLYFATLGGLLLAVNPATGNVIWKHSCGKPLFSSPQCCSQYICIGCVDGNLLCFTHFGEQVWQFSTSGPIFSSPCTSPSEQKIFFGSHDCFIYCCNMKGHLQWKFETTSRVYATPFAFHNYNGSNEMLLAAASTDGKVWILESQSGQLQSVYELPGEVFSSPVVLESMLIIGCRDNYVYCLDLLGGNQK
UniProt Q86TW2: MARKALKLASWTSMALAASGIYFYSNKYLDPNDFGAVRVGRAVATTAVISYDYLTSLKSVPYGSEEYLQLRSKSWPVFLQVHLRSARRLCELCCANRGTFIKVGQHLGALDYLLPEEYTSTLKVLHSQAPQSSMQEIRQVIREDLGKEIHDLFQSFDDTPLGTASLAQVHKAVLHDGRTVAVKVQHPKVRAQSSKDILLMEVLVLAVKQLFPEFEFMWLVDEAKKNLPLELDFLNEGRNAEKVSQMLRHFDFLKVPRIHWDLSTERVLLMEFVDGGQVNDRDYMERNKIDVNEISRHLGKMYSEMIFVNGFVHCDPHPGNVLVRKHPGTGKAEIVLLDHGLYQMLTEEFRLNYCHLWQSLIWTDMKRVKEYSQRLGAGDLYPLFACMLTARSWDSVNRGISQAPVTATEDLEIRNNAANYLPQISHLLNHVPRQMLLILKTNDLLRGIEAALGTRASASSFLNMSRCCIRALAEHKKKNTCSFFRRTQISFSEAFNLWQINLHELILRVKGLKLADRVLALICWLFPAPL
UniProt Q8TB40: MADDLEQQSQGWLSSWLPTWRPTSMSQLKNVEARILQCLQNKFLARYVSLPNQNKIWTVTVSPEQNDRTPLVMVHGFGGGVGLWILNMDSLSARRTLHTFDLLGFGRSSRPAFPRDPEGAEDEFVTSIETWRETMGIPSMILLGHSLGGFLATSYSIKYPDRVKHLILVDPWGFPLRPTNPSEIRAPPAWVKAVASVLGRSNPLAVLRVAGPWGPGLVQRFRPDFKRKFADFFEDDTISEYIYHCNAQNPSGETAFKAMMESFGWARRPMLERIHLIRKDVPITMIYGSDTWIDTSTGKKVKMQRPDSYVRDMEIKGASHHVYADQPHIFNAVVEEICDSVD
UniProt Q15067: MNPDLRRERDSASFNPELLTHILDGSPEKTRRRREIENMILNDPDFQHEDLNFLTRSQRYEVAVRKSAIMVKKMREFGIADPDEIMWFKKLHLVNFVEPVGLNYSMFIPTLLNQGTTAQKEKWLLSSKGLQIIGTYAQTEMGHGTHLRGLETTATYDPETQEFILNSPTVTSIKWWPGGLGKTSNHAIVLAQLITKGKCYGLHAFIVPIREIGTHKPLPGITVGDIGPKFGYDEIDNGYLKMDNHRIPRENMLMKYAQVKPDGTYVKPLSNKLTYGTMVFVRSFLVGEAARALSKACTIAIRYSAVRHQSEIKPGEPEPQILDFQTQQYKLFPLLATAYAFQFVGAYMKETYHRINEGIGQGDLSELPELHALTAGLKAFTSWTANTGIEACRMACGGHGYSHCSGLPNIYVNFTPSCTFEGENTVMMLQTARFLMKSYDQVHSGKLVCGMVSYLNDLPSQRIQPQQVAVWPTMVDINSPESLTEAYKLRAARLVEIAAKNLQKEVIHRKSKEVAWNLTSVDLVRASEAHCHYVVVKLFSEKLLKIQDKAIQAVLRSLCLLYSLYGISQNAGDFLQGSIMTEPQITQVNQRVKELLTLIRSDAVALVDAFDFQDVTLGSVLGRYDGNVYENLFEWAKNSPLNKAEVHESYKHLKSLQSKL
UniProt P33897: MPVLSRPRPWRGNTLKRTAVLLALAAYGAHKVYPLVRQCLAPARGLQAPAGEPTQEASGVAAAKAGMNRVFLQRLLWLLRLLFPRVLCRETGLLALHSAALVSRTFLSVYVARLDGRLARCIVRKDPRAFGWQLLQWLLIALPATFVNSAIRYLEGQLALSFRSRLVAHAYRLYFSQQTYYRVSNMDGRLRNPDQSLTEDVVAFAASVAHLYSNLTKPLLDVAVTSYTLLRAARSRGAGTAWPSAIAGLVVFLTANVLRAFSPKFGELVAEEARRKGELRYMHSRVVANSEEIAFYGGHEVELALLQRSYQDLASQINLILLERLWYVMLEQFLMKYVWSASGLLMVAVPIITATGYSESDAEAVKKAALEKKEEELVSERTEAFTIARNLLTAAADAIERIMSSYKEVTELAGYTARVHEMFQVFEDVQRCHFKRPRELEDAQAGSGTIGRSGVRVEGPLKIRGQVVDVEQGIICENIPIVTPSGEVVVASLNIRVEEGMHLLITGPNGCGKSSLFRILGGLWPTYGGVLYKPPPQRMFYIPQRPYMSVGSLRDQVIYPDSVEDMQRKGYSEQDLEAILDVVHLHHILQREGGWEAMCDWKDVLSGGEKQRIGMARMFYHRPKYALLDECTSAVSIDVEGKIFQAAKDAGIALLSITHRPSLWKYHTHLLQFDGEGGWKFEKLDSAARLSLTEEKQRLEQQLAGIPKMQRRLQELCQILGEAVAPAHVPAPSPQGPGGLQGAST
UniProt Q8WU67: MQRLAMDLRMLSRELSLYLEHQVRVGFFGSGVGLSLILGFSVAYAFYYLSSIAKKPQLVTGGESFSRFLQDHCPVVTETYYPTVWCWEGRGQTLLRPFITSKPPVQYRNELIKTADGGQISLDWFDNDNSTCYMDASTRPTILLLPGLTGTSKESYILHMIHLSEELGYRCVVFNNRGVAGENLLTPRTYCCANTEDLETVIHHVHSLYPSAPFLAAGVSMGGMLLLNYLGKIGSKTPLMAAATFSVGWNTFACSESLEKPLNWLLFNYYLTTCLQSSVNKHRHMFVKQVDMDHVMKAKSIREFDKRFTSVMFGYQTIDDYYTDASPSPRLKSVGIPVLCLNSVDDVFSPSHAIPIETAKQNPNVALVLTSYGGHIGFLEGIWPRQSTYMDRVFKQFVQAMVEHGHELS
UniProt P80404: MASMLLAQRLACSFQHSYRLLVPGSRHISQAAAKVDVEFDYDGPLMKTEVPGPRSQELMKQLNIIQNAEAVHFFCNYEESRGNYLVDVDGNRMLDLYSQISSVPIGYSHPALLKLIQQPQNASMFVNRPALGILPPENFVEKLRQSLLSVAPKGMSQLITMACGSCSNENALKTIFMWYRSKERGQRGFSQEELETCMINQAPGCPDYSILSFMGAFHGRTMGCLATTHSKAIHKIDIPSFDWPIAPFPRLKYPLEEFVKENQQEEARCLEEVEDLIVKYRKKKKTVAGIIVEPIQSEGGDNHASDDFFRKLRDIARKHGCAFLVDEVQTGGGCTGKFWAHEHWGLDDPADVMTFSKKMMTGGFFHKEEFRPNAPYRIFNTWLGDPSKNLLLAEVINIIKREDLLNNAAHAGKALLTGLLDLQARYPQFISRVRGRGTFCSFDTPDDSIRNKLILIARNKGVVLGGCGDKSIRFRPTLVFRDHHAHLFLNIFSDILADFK
UniProt Q96CM8: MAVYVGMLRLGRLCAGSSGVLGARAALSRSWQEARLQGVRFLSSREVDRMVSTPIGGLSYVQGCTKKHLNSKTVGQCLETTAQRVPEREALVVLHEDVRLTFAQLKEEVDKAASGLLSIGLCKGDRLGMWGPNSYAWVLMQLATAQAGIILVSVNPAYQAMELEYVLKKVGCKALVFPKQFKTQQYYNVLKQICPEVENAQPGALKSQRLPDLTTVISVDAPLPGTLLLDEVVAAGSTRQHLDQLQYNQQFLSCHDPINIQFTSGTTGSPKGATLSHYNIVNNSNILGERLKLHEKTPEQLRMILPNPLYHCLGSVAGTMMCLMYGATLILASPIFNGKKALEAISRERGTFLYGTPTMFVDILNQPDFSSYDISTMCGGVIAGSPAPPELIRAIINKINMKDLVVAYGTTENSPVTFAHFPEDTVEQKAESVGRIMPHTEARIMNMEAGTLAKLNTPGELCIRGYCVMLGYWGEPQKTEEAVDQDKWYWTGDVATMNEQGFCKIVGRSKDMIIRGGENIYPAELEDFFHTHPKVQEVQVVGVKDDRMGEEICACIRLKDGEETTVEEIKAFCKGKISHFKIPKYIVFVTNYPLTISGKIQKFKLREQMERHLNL
UniProt Q5T8D3: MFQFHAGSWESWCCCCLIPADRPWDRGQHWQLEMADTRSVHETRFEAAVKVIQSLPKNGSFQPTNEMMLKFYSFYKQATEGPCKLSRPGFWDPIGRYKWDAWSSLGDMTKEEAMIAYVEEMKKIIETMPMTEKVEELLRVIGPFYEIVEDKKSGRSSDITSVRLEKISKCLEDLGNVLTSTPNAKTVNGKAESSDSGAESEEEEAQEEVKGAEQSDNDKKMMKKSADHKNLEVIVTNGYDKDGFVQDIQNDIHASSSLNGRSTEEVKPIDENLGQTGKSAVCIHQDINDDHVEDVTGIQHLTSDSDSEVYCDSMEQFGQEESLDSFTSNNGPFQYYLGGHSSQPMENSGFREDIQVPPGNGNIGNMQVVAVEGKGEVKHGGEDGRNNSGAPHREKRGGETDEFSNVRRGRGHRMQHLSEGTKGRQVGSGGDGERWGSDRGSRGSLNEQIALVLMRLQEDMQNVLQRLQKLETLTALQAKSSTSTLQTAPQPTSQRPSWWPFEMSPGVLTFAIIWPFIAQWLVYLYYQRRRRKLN

How the values were obtained:
Assay in all cases: log2 fold change, soluble protein after heating vs DMSO (PISA); higher = thermal stabilisation; K562 cells, 10 uM, 30 min; active = over 0.2 and 3.5 SD of the protein, either way, in both replicates (recomputed)
[1] = compound: CCn1c(C(=O)N(C2CC2)C2CC2)cc2c3c(ncn3C)c(Nc3cc(C)n(C)n3)nc21
Outline: (§1)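 K562 cells at 2×10^6 cells/mL were exposed to 10 μM compound for 30 min, then aliquots were heated for 3 min across 48°C-58°C, pooled, and extracted in PBS containing 0.5% NP-40 at 4°C. The supernatant after 21,000xg for 90 min was taken as soluble protein and measured by TMTpro 16plex LC-MS/MS with channel sums equalised. Thermal stability is reported relative to control samples, with values from duplicates. Fold changes are given on a log2 scale.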

rosiglitazone = compound: CN(CCOC1=CC=C(C=C1)C[C@H]2C(=O)NC(=O)S2)C3=CC=CC=N3 (racemic) [rosiglitazone]
Outline: as §1

[2] = compound: CC[C@@H]1C(=O)N(C)c2cnc(Nc3ccc(C(=O)NC4CCN(C)CC4)cc3OC)nc2N1C1CCCC1
Outline: as §1

volasertib = compound: CC[C@@H]1C(=O)N(C)c2cnc(Nc3ccc(C(=O)N[C@H]4CC[C@H](N5CCN(CC6CC6)CC5)CC4)cc3OC)nc2N1C(C)C [volasertib]
Outline: as §1

[3] = compound: CCn1cc(-c2ccnc3[nH]c(-c4cccc(CN(C)C)c4)cc23)c(-c2ccc(NC(=O)N(C)C)cc2)n1
Outline: as §1

[4] = compound: CN1C2=C(C3=C1C(=O)N(N=C3)CC4=CC(=CC=C4)N)SC(=C2)S(=O)C
Outline: as §1

[5] = compound: CN1CCC(CNc2ccc3ncc(-c4cccc(OC(F)(F)F)c4)n3n2)CC1
Outline: as §1

[6] = compound: CC[C@H](C)N1C=C(C2=C(C=C(C=C21)C3=CN=C(C=C3)N4CCNCC4)C(=O)NCC5=C(C=C(NC5=O)C)C)C
Outline: as §1

[7] = compound: CN(C)CC(=O)Nc1ccc2[nH]c(=O)c3ccccc3c2c1
Outline: as §1

epoxomicin = compound: CC[C@H](C)[C@@H](C(=O)N[C@@H]([C@@H](C)O)C(=O)N[C@@H](CC(C)C)C(=O)[C@]1(CO1)C)NC(=O)[C@H]([C@@H](C)CC)N(C)C(=O)C [epoxomicin]
Outline: as §1

Measured: log2 fold change

ABCA8 isoform 3 (UniProt O94911)
inactive: [1] 0.107 | rosiglitazone 0.352

ACBD7 (UniProt Q8N6N7)
inactive: [2] 0.038 | volasertib -0.123 | [3] -0.133 | [4] -0.208 | [5] 0.033

ADAMTS5 (UniProt Q9UNA0)
inactive: [2] 0.011 | [6] -0.211 | [3] -0.16 | [7] 0.045 | [4] -0.018 | [5] -0.039

2 neighbouring entries out of the list so far, for reference:
ACBD7 (UniProt Q8N6N7)
inactive: [2] 0.038 | volasertib -0.123 | [3] -0.133 | [4] -0.208 | [5] 0.033

ADAMTS5 (UniProt Q9UNA0)
inactive: [2] 0.011 | [6] -0.211 | [3] -0.16 | [7] 0.045 | [4] -0.018 | [5] -0.039

Next part.

ABL2 (UniProt P42684)
inactive: epoxomicin 0.226 | rosiglitazone 0.27

ADAD1 (UniProt Q96M93)
inactive: [2] 0.058 | [6] -0.145 | [1] -0.08 | [3] 0.047 | [7] -0.042 | rosiglitazone 0.052 | [4] 0.071 | [5] -0.178

ABHD14A (UniProt Q9BUJ0)
inactive: [4] 0.118

ADAM8 (UniProt P78325)
inactive: epoxomicin 0.139 | [1] -0.151

ABHD5 (UniProt Q8WTS1)
inactive: [2] -0.032 | volasertib -0.225 | [1] -0.157 | rosiglitazone -0.269 | [4] 0.195

AASDH (UniProt Q4L235)
inactive: [6] 0.141 | epoxomicin 0.028 | [3] 0.149 | [7] 0.189 | [4] -0.019 | [5] 0.004
active: volasertib -0.445

ADCK1 (UniProt Q86TW2)
inactive: volasertib -0.067 | [6] 0.016 | epoxomicin 0.077 | [1] 0.067 | [7] -0.016 | [4] 0.208

ABCA4 (UniProt P78363)
inactive: [2] 0.117 | [6] -0.202 | epoxomicin -0.046 | [3] -0.163 | [5] -0.087

ADAM15 (UniProt Q13444)
inactive: volasertib -0.103 | [6] -0.02 | epoxomicin 0.034 | [3] -0.001 | [7] 0.066 | [4] -0.028 | [5] -0.016

ABHD4 (UniProt Q8TB40)
inactive: epoxomicin 0.074 | [1] -0.036 | rosiglitazone 0.189

ABCA7 (UniProt Q8IZY2)
inactive: [2] -0.079 | [6] 0.075 | epoxomicin -0.026 | [1] 0.06 | [3] 0.014 | rosiglitazone -0.028 | [5] -0.078

ACCS (UniProt Q96QU6)
inactive: [2] -0.111 | [6] -0.027 | epoxomicin 0.09 | [1] 0.002 | [3] -0.072 | rosiglitazone -0.039 | [5] 0.035

ACOX1 isoform 3 (UniProt Q15067)
inactive: [7] -0.272

AAK1, A0A096LP25
inactive: [2] -0.086 | [6] -0.005 | epoxomicin -0.098 | [3] -0.031 | [7] 0.037 | [4] -0.073 | [5] 0.332

ACTR3B (UniProt Q9P1U1)
inactive: volasertib -0.063 | [6] 0.261 | [3] -0.047 | [7] -0.05 | [5] 0.048

ABCB4 (UniProt P21439)
inactive: [2] 0.169 | volasertib 0.108 | [1] -0.154 | [7] -0.074

ABCD1 (UniProt P33897)
inactive: epoxomicin 0.108 | [1] -0.125

ACTC1 (UniProt P68032)
inactive: [2] -0.196 | [1] 0.066

ABCA2 isoform 3 (UniProt Q9BZC7)
inactive: [2] 0.09 | rosiglitazone 0.159

ACTB (UniProt E7EVS6)
inactive: [1] -0.119

ABHD3 (UniProt Q8WU67)
inactive: [1] -0.065

AACS (UniProt Q86V21)
inactive: epoxomicin 0.022

ACTRT1 (UniProt Q8TDG2)
inactive: volasertib 0.041 | epoxomicin -0.146 | [1] 0.012 | [3] 0.044 | [7] -0.212 | rosiglitazone 0.059 | [4] 0.039 | [5] -0.195

ABAT (UniProt P80404)
inactive: epoxomicin -0.069

ACSL6 isoform 1 (UniProt Q9UKU0)
inactive: [6] 0.08 | epoxomicin -0.159 | [3] -0.014 | [7] 0.149 | [4] -0.226
active: [5] -0.459

ACSF2 isoform 2 (UniProt Q96CM8)
inactive: [1] 0.088 | [3] -0.069 | [5] -0.082

ABCF1 (UniProt Q5STZ8)
inactive: [6] -0.141 | [7] -0.016 | rosiglitazone 0.037

ABCB11 (UniProt O95342)
inactive: volasertib -0.031

ACBD5 (UniProt Q5T8D3)
inactive: volasertib 0.394 | epoxomicin 0.044 | [1] -0.134 | [3] 0.141 | [7] 0.166 | [4] 0.068 | [5] 0.062
